These are yes or no findings as the source states them, for the method shown. Some entries that bind do so weakly or less than the wild type. Tags and fused reporters may be left off the sequences shown.
Biological target: T1, DNA binding domain fused OsRHC1 (pGBKT7-OsRHC1) (rice)
T1 sequence: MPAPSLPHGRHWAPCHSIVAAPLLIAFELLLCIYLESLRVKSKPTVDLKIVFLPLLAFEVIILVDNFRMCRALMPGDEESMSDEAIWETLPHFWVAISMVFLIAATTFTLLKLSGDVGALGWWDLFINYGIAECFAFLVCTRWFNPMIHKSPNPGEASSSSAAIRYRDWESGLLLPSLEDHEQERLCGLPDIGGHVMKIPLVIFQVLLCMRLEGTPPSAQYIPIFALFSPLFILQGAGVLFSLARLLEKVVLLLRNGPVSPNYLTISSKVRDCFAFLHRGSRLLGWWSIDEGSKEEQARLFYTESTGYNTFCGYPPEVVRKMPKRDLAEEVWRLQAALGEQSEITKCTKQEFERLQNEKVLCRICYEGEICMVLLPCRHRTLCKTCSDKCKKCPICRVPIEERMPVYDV
Test: yeast two hybrid: growth on SD/-3 and SD/-4 plates, lacZ colony-lift filter assay; confirmed by retransformation into AH109

B1: HML1797, partial clone of expressed protein ABA98865.1 fused to the AD domain (pGADT7-HML1797) (protein, not shown: small tags and cut ends)
chain: MAVGSERLGEEAARRQLGEARKARGGCSATRDGADDEGRRQINPPSPVWSSPPSLPLPLRSARRGTGGGRRPPFPLSSQIRPVGRGHRRQRHGPPLCSSRGRQGGGHRAVFFYLFLF
- binding: binds

Reference: patent US20100313296A1
